Test results as given in US20200390754A1, “METHODS OF ADMINISTERING TOLPERISONE” (Neurana Pharmaceuticals, Inc., priority 2017, published 2020).

Experiment: Correlation of plasma drug levels with driving performance, cognitive and self-report measures
Format: in vivo, human
Conditions: correlational analyses

Cc1ccc(C(=O)C(C)CN2CCCCC2)cc1 (centres unmarked) [Tolperisone, tolperisone]
relationship between performance on the Symbol Digit Coding Test and plasma concentration: higher concentrations were associated with better performance | relationship between plasma concentrations and measures of driving performance, cognitive functioning, or self-report measures: no relationship
